Reference: PubChem BioAssay AID504791 (Drosophila RNAi Screening Center, 2011)
The screen tested about 23,000 reagents; below is an unselected part of those that have a named target and a result. Of all reagents, 199 (0.86%) were called active. 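Plate-scaled ratios behind the calls are not deposited; printed light signals are raw; many rows marked increased or decreased are still called inactive.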 Names joined by + are all predicted targets of the reagent. Not all columns of the deposit are shown.

Test: 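Genes of the fly required for silencing by miRNA, siRNA or endo-siRNA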 (primary screen)
Cell system: Drosophila S2-derived reporter cells
Reagent: long dsRNA against Drosophila genes, about 150-250 ng dsRNA per well (siRNA assay); about 80-120 ng (miRNA assay)
Time to read-out: about 5 days (siRNA assay); about 4 days (miRNA assay)
Conditions: copper sulfate induction of reporters: 25 µM (siRNA assay); 200 mM stated (miRNA assay), 1-2 days before reading
Read-out: 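Per-well ratio of Renilla over firefly light, expressed relative to that plate's average ratio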
Direction: siRNA reporter hit score: higher = 3 marks a strong hit with raised ratio; -3 a strong hit with lowered ratio
Rule for the call: 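First-pass picks had plate-scaled ratios over 1.5 for the siRNA assay, over 1.6 for the miRNA assay, or under 0.6; two distinct dsRNAs had to score alike on retest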

predicted target | dsRNA | siRNA reporter hit score | stable siRNA reporter change | miRNA reporter change | stable assay Renilla, run 1 (luminescence) | outcome
Bx42 | DRSC17743 | – | – | – | 7867 | inactive
Bx42 | DRSC27666 | – | – | reporter ratio lowered past the hit cutoff | – | active
CG14147 | DRSC10149 | – | – | – | 5795 | inactive
Pkn + Tsen15 | DRSC21969 | – | – | – | 5199 | inactive
Bap111 | DRSC18419 | – | – | – | 4479 | inactive
CG14764 | DRSC05072 | – | – | – | 4604 | inactive
CG14764 | DRSC06498 | – | – | – | 8620 | inactive
CG14764 | DRSC06844 | – | – | – | 7190 | inactive
Rpt1 | DRSC07542 | -3 | reporter ratio raised past the hit cutoff | reporter ratio raised past the hit cutoff | 8379 | active
CG14669 | DRSC12065 | – | – | – | 4187 | inactive
CG14669 | DRSC12067 | – | – | – | 6650 | inactive
CG14669 | DRSC12068 | – | – | – | 6524 | inactive
CG14669 | DRSC12255 | – | – | – | 6843 | inactive
Icmt | DRSC09834 | – | – | – | 6075 | inactive
Opbp | DRSC04966 | – | – | – | 7355 | inactive
CG15605 | DRSC06558 | – | – | – | 6134 | inactive
Bdbt | DRSC15218 | – | – | – | 9393 | inactive
CG13228 | DRSC06348 | – | – | – | 6122 | inactive
CG4650 | DRSC02767 | – | – | – | 7837 | inactive
mRpS18A | DRSC14369 | – | – | – | 6259 | inactive
mthl10 | DRSC08504 | – | – | – | 7490 | inactive
mthl10 | DRSC08505 | – | – | – | 6259 | inactive
CG8036 | DRSC16366 | – | – | – | 6499 | inactive
Unc-115b + p24-2 + Unc-115a | DRSC16502 | – | – | – | 6999 | inactive
CG34133 | DRSC16319 | – | – | – | 7790 | inactive
CG34133 | DRSC22239 | – | – | – | 8092 | inactive
SdhB | DRSC05018 | – | – | – | 9478 | inactive
SdhB | DRSC21367 | – | – | – | 8841 | inactive
CG15473 | DRSC18056 | – | – | – | 6280 | inactive
Daxx | DRSC03255 | – | – | – | 13244 | inactive
Gga | DRSC18260 | – | – | – | 8322 | inactive
Fsn | DRSC06875 | – | – | – | 8138 | inactive
DCTN5-p25 | DRSC03525 | – | – | – | 8084 | inactive
CG14312 | DRSC14791 | – | – | – | 6766 | inactive

Records above with an active call, once more:
predicted target | dsRNA | siRNA reporter hit score | stable siRNA reporter change | miRNA reporter change | stable assay Renilla, run 1 (luminescence) | outcome
Bx42 | DRSC27666 | – | – | reporter ratio lowered past the hit cutoff | – | active
Rpt1 | DRSC07542 | -3 | reporter ratio raised past the hit cutoff | reporter ratio raised past the hit cutoff | 8379 | active
